Laboratory results published in patent US20030170643A1, “Regulation of apoB treatment and drug screening for cardiovascular and metabolic disorders or syndromes” (priority 1999, published 2003).
For at least one compound, name, drawing or mass did not settle the structure.

Key:
rat primary hepatocytes = experiment: ApoB mass in conditioned medium by radioimmunoassay, with or without wortmannin; format: cell-based; conditions: 5 hours
rat hepatoma cells = experiment: TBARS assay of ROS in cell lysates of rat hepatoma cells; format: cell-based; conditions: co-treatment with DHA, FIG. 13C
Experimental: FIG. 13 illustrates that either an iron chelator (DFX) or lipid antioxidants block DHA-stimulated apoB degradation and reactive oxygen species (ROS) production. Rat hepatoma cells were plated in culture wells and pre-incubated in media containing either DHA or DHA with one of the indicated compounds. Radiolabeled methionine/cysteine was added to the culture media for 15 minutes, after which time, the culture media were replaced by fresh media identical in composition except that radiolabeled methionine/cysteine were replaced by unlabeled methionone/cysteine. The recovery of labeled apoB100 ([^35S]-apoB100) from the media and cell lysate was determined at the indicated time points (with time 0 being the point when the fresh media were applied to the cells) by immunoprecipitating apoB species with a rabbit polyclonal antibody to rat apoB, resuspending the immunoprecipitates, combining aliquots from cell lysate and media samples from each well, resolving the protein contents of the combined immunoprecipitates by SDS-polyacrylamide gel electrophoresis (SDS-PAGE), and exposing the resultant gels to X-ray film in order to visualize the labeled apoB bands. […] In panel C, the ROS content of the cell lysates at the end of the experiment was measured by the standard TBARS assay (Stocks et al., 1974, Clin Sci Mol Med 47,215-222). […]

## COC[C@H]1OC(=O)c2coc3c2[C@@]1(C)C1=C(C3=O)[C@@H]2CCC(=O)[C@@]2(C)C[C@H]1OC(C)=O [wortmannin]
Rat primary hepatocytes; wortmannin (1 mM) plus DHA
  recovery of apoB in DHA-treated group with wortmannin: restored to the control level
Rat primary hepatocytes; wortmannin (1 mM)
  effect of wortmannin on apoB recovery in the BSA and OA groups: lack of statistical effects

## Cc1cc(C(C)(C)C)c(O)c(C(C)(C)C)c1 [BHT, butylhydroxytoluene, reference compound]
Rat hepatoma cells
  DHA-increased ROS, TBARS assay, with co-treatment: reduced
